PubChem BioAssay AID1224826 | NIAID | 2016

Test: 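Knock-downs that raise or lower Tnf reporter signal after endotoxin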 (primary screen)
System: RAW264.7 G9 macrophages from mouse bearing reporters for p65 (GFP) and the Tnf promoter (mCherry)
Reagent: siRNA pool against mouse genes, 100 nM
Duration: 16 h of LPS stimulation, after 2 days of siRNA transfection
Conditions: bacterial lipopolysaccharide (Salmonella minnesota R595), 10 ng/ml
Detection: 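Imaged Tnf reporter mCherry in nuclei, minus background, normalised per plate to the median and expressed as robust z-scores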
Scale: Tnf reporter robust z-score: higher = stronger Tnf promoter reporter signal after LPS
Call rule: 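a well counts as active at a score of -1.3 or below (Tlr4 knock-down control median) or above 3 (raised signal); controls and wells holding fewer than 50 cells are excluded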
Calls: active = Tnf reporter clearly lowered or raised; inactive = no clear change in Tnf reporter
In all, the deposit lists about 17,000 reagents; shown is a part drawn at random. In the full data, about 1,110 (6.6%) were called active. 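Active means lowered or raised reporter signal; replicate intensities are raw and not normalised per plate.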 Further read-outs or replicates are left out here. Reagent sequences are not shown.

Tbc1d15 (GeneID 66687) | Tnf reporter robust z-score = -0.21; fewer than 50 cells in well = enough cells in well; activity call = inactive
Mthfr (GeneID 17769) | Tnf reporter robust z-score = -1.08; fewer than 50 cells in well = enough cells in well; activity call = inactive
Ppcs (GeneID 106564) | Tnf reporter robust z-score = 0.67; fewer than 50 cells in well = enough cells in well; activity call = inactive
Cd8b1 (GeneID 12526) | Tnf reporter robust z-score = -0.18; fewer than 50 cells in well = enough cells in well; activity call = inactive
BC061237 (GeneID 385138) | fewer than 50 cells in well = fewer than 50 cells per well; well left out of calls; activity call = inactive
Obox5 (GeneID 252829) | Tnf reporter robust z-score = 1.7; fewer than 50 cells in well = enough cells in well; activity call = inactive
Rbbp8nl (GeneID 271887) | fewer than 50 cells in well = fewer than 50 cells per well; well left out of calls; activity call = inactive
Grin3a (GeneID 242443) | Tnf reporter robust z-score = -1.51; fewer than 50 cells in well = enough cells in well; activity call = active
Aqp12 (GeneID 208760) | Tnf reporter robust z-score = -1.06; fewer than 50 cells in well = enough cells in well; activity call = inactive
Cfap418 (GeneID 67157) | fewer than 50 cells in well = fewer than 50 cells per well; well left out of calls; activity call = inactive
Vav3 (GeneID 57257) | Tnf reporter robust z-score = -0.07; fewer than 50 cells in well = enough cells in well; activity call = inactive
Prok2 (GeneID 50501) | Tnf reporter robust z-score = 0.75; fewer than 50 cells in well = enough cells in well; activity call = inactive
Gast (GeneID 14459) | Tnf reporter robust z-score = 0.71; fewer than 50 cells in well = enough cells in well; activity call = inactive
Defb15 (GeneID 246082) | Tnf reporter robust z-score = -0.83; fewer than 50 cells in well = enough cells in well; activity call = inactive
Vps37b (GeneID 330192) | Tnf reporter robust z-score = 0.71; fewer than 50 cells in well = enough cells in well; activity call = inactive
Vmn1r93 (GeneID 404290) | Tnf reporter robust z-score = 2.26; fewer than 50 cells in well = enough cells in well; activity call = inactive
Nptx1 (GeneID 18164) | Tnf reporter robust z-score = 1.35; fewer than 50 cells in well = enough cells in well; activity call = inactive
Nenf (GeneID 66208) | Tnf reporter robust z-score = -0.2; fewer than 50 cells in well = enough cells in well; activity call = inactive
Trpc4ap (GeneID 56407) | Tnf reporter robust z-score = 0.41; fewer than 50 cells in well = enough cells in well; activity call = inactive
Fut8 (GeneID 53618) | Tnf reporter robust z-score = 0.12; fewer than 50 cells in well = enough cells in well; activity call = inactive
Vdac3 (GeneID 22335) | Tnf reporter robust z-score = -0.85; fewer than 50 cells in well = enough cells in well; activity call = inactive
Calml3 (GeneID 70405) | Tnf reporter robust z-score = -0.31; fewer than 50 cells in well = enough cells in well; activity call = inactive
Mif4gd (GeneID 69674) | fewer than 50 cells in well = fewer than 50 cells per well; well left out of calls; activity call = inactive
Catsperz (GeneID 67077) | Tnf reporter robust z-score = -0.01; fewer than 50 cells in well = enough cells in well; activity call = inactive
Hspbp1 (GeneID 66245) | Tnf reporter robust z-score = -0.35; fewer than 50 cells in well = enough cells in well; activity call = inactive
Zkscan5 (GeneID 22757) | Tnf reporter robust z-score = -0.44; fewer than 50 cells in well = enough cells in well; activity call = inactive
Phtf1 (GeneID 18685) | Tnf reporter robust z-score = -1.04; fewer than 50 cells in well = enough cells in well; activity call = inactive

Called active, among the entries above:
Grin3a (GeneID 242443) | Tnf reporter robust z-score = -1.51; fewer than 50 cells in well = enough cells in well; activity call = active
